Here are results for one molecule from patent WO2016075546A2.

Chains of the proteins cited; added tags and fusions are not shown. Residues count along the entry.
UniProt Q05320, residues 33-650: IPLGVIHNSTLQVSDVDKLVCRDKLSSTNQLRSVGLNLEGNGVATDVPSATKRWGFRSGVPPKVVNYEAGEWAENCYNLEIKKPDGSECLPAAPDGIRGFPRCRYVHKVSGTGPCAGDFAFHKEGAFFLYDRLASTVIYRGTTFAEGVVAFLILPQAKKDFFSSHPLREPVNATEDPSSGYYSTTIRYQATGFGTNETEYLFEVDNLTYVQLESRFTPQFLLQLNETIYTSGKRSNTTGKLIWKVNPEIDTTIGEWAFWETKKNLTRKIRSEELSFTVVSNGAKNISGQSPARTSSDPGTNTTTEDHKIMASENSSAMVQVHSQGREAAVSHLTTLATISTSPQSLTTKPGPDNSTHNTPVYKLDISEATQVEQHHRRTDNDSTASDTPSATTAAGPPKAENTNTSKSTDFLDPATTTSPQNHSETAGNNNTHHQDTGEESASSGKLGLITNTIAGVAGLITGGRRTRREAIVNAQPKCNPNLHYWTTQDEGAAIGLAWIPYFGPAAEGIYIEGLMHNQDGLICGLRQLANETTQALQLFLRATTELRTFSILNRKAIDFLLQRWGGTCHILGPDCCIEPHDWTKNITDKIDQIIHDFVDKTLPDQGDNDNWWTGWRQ

No constants are given. Whether binding was seen depends on the method and setting. Some entries that bind do so weakly or less than the wild type.

The target in assay [1] is ZEBOV GP protein (coated, ELISA) (Zaire ebolavirus (ZEBOV)) (UniProt Q05320). The assay is described as follows: ELISA titration on coated GP. On the technique in general: In an ELISA, binding on a coated surface is turned into a signal by an enzyme label.
The target is the same in assay [2]. The assay is described as follows: ELISA cross-competition on GP-coated plates.

B1: EVB100 (antibody, V domains shown)
VH: QVQLQESGPGLVKPSDTLSLTCTVSGGSLSSFYWSWIRQPPGKGLEWIGYIYYSGSPNYSPSLESRVTMSVDTTRNQISLKLDSVTAADTAVYYCVRASRSYYWGSYRPTAFDSWGQGTLVTVSS
VL: SYELTQPLSVSVSPGQTAIFTCSGDNLGDKYVCWFQQRPGQSPMLLIYQDNKRPSGIPERFSGSNSGNTATLTISGTQSTDEADYYCQTWDSTVVFGGGTKLTVL
Take B1: the binding entry in assay [1] and in assay [2] was “binds” each time.
